# Source: article PMC12040169 (PLOS Biology, 2025)
# Some of the results follow.
# System: T1, CTL2-GFP (C. trachomatis L2/434/Bu, GFP-expressing)
# T1 construct: L2/434/Bu, GFP-expressing
# Set-up: species or system HeLa; Intracellular C. trachomatis growth in HeLa cells, bulk GFP fluorescence relative to DMSO
# Details: bulk GFP, single well; 28.5 h, 10 µM; inhibitor
row,SMILES,% of control remaining [%]
1,c1ccc(CCN2CCC(n3cnc4cccnc43)CC2)cc1 [CBK283581],135.319
2,CCC(CO)Nc1cncc(-c2cccc(/C=C/C(=O)O)c2)n1 (centres unmarked) [CBK065569],90.3583
3,O=C(Nc1ccc(N2CCNCC2)nc1)C1(c2ccccc2)CCCCC1 [CBK028269T],130.112
4,Cc1ccc2nsnc2c1NC(=O)COc1ccccc1F [CBK269420],128.146
5,COc1ccc(-c2noc([C@@H]3Cc4[nH]cnc4CN3C(=O)Nc3ccc(C)cc3)n2)cc1 [CBK288968],99.6027
6,COc1cc(CN2CCN(Cc3ccncc3)CC2)cc(OC)c1O [CBK263401],121.515
7,O=C(Cc1c[nH]cn1)N1CCN(c2ncccn2)CC1 [CBK144527],126.979
8,O=C1CSC2(C(=O)Nc3ccc(Br)cc32)N1c1cccc([N+](=O)[O-])c1 (centres unmarked) [CBK093451],89.3268
9,COc1ccc(Nc2ccc(-c3ccc4ccccc4c3)cn2)cn1 [CBK037744],126.242
10,NC(=O)CN1CCC(Oc2nccnc2OCC2COc3ccccc3O2)CC1 (centres unmarked) [CBK082987T],137.039
11,COc1cccc(C(=O)Oc2ccc3c(=O)c(-c4nc5ccccc5s4)c(C)oc3c2)c1 [CBK265540],136.456
12,COc1ccc(-c2cc(C(=O)N3CCN(C(C)=O)CC3)cnc2-c2ccc(Cl)cc2)cc1 [CBK037577],123.883
13,Cn1c(=O)c2c(nc(NCCO)n2CCc2ccccc2)n(C)c1=O [CBK267497],119.279
14,CC(=O)Nc1c(C)ccc(S(=O)(=O)N2CCOCC2)c1C [CBK034327],130.712
15,Nc1nn2c(-c3cccc(Cl)c3)nnc2s1 [CBK288122],154.384
16,Clc1nc2ccccc2nc1N1CCNCC1 [CBK003880],111.827
17,CCOCCCNc1nc2c(c(=O)[nH]c(=O)n2C)n1CCC(C)C [CBK287968],155.206
18,Cc1ncc([N+](=O)[O-])n1CC(=O)NC1CCCCCC1 [CBK269194],147.229
19,COc1ccccc1-c1nccnc1OCc1cccs1 [CBK106819],106.406
20,CC(C)(C)NC(=O)Cn1cncc1-c1cnn(-c2ccccc2)c1 [CBK281697],80.8023
21,COC(=O)c1cccn2cc(CN3CCOC4CCCCC43)nc12 (centres unmarked) [CBK304949],106.939
22,O=c1[nH]c(/C=C/c2cc(Br)ccc2OCc2cccc3ccccc23)c([N+](=O)[O-])c(=O)[nH]1 [CBK268052],92.8343
23,O=C(NCCN1CCOCC1)N(c1ccccc1)c1ccccc1 [CBK270057],115.346
24,Fc1cc(Br)ccc1-c1cn(-c2ccc3[nH]ccc3c2)nn1 [CBK113146],101.712
25,CC(C)(C)c1ccc(S(=O)(=O)N2CCCC[C@H]2COC(=O)c2nccnc2C(=O)O)cc1 [CBK200065],128.192
26,Cc1ccc2[nH]c(Cc3ccc(NC(=O)CCc4nc5ccccc5[nH]4)cc3)nc2c1 [CBK285801],140.131
27,Cn1cc(CC2CCN(Cc3ccc(Oc4cnccn4)cc3)C2)cn1 (centres unmarked) [CBK304188],111.93

# Arranged by heavy-atom count (descending): part of the list above.
row,SMILES,% of control remaining [%]
22,O=c1[nH]c(/C=C/c2cc(Br)ccc2OCc2cccc3ccccc23)c([N+](=O)[O-])c(=O)[nH]1 [CBK268052],92.8343
3,O=C(Nc1ccc(N2CCNCC2)nc1)C1(c2ccccc2)CCCCC1 [CBK028269T],130.112
24,Fc1cc(Br)ccc1-c1cn(-c2ccc3[nH]ccc3c2)nn1 [CBK113146],101.712
16,Clc1nc2ccccc2nc1N1CCNCC1 [CBK003880],111.827

# Next structures:

row,SMILES,% of control remaining [%]
1,N[C@H](CSCc1ccccc1)C(=O)Nc1ccc([N+](=O)[O-])cc1 [CBK074824],99.4071
2,CSCCCNC(=O)c1ccc2[nH]ccc2c1 [CBK149056],126.206
3,CS(=O)(=O)c1ccc(-c2cccc(COC3CCN(C(=O)Cc4ccc(Cl)cc4)CC3)c2)cc1 [CBK149504],76.2282
4,CC(C)(C)NC(=O)Cn1ccc2ccnc(-c3cccs3)c21 [CBK284737],184.068
5,CC(=O)Nc1n[nH]c(SCCc2ccccc2)n1 [CBK262514],100
6,CCC(C)NC(=O)Cn1cccc2cc(C3CCNCC3)nc1-2 (centres unmarked) [CBK284681],116.207
7,CC(C)(O)C1(C)OC(NC2C3CC4CC(C3)CC2C4)=NC1=O (centres unmarked) [CBK126370],97.4331
8,CC(C)CN1CCC(C(=O)NC(c2ccc(Cl)cc2)c2cnccn2)CC1 (centres unmarked) [CBK148026],124.072
9,O=C(Nc1nc(-c2ccncc2)cs1)c1sc2ccccc2c1Cl [CBK287562],128.109
10,COc1cc(Cl)cc(C2NC(=S)NC(c3ccccc3)=C2C(C)=O)c1OCC(=O)O (centres unmarked) [CBK268801],143.575
11,O=C(CSc1nn2cnnc2s1)Nc1ccc(I)cc1 [CBK268913],111.923
12,N#Cc1ccccc1NC(=O)CSc1cnn[nH]1 [CBK269795],122.887
13,Cc1ccc(N2CCCn3c2nc2c3c(=O)n(CC(=O)O)c(=O)n2C)cc1 [CBK286740],115.252
14,CCc1nnc(NC(=O)CCc2ccccc2)s1 [CBK057943],114.214
15,COc1ccc2nc(NC(=O)c3cnc(-c4ccc(Cl)cc4)c(-c4cccnc4)c3)sc2c1 [CBK037576],165.964
16,CCOC(=O)c1sc(NS(=O)(=O)c2ccc(Cl)c(Cl)c2)nc1C [CBK077228],102.371
17,COC(=O)Cc1ccc(NC(=S)N2CCC(C(N)=O)(N3CCCCC3)CC2)cc1 [CBK266101],107.644
18,COCCN1C(=O)C2(CC(=O)N(CCOc3ccccc3)C2=O)c2ccccc21 (centres unmarked) [CBK075322],111.385
19,Cc1ccc(S(=O)(=O)NCCN2CCN(S(=O)(=O)c3ccc(C)cc3)CC2)cc1 [CBK265461],133.449
20,COc1ccc([C@@]23CCN(C(=O)Nc4ccc(F)c(F)c4F)C[C@@H]2CN(C)C3)cc1OC [CBK074305T],87.0802
21,COC(=O)c1ccc(N2CCN(Cc3cnoc3C)C(C)C2)cc1 (centres unmarked) [CBK306442],117.761
22,CCn1c(SCC(N)=O)nnc1C(C)Oc1ccc(C)c(C)c1 (centres unmarked) [CBK270289],169.728
23,Cc1cc(C)c2c(n1)oc1c(Cl)ncnc12 [CBK008822],139.654
24,O=C(Nc1cccc(Cl)c1Cl)c1cnccn1 [CBK288243],109.181
25,CCN1CC2(CCCN(Cc3cncn3C3CCCCC3)C2)CCC1=O (centres unmarked) [CBK307223],118.047
26,O=C(COc1ccccc1)N1CCN(Cc2ccccn2)CC1 [CBK073265G],100
27,Nc1nnc(C(F)(F)F)o1 [CBK023457],88.401

row,SMILES,% of control remaining [%]
1,CC(=O)Nc1ccc(-c2cncc(N(CCO)CCO)n2)cc1 [CBK065789],166.186
2,Cc1csc2c(N3CCC(OCCN4CCCC4)CC3)ncnc12 [CBK304095],93.9372
3,CCN(Cc1ccccc1)C(=O)NCCCSC [CBK155214],100
4,Cc1ccc(-c2nccnc2OC2CCCCC2)c(C)c1 [CBK106983],114.528
5,COc1cccc(CCNCC(O)COc2ncnc3ccccc23)c1 (centres unmarked) [CBK028127T],117.546
6,CCN(CC)CCN1CCN(c2cc(-c3cccnc3)ncn2)CC1 [CBK036957],96.4091
7,CC1=C(C(=O)Nc2ccccc2)C(c2ccccc2)C(C#N)=C(SCc2ccncc2)N1 (centres unmarked) [CBK267448],142.321
8,O=C(NC(c1ccc(-c2ccccc2)cc1)c1cnccn1)C1CCN(CCCN2C(=O)C3CCCCC3C2=O)CC1 (centres unmarked) [CBK147856],99.1709
9,O=C(NCCc1c[nH]c2ccc(Cl)cc12)c1ccc(Cl)cc1Br [CBK159755],10.3072
10,CCN(CC)CCNC(=O)c1cccc(Nc2cncc(-c3ccc(O)cc3)n2)c1 [CBK122671],123.16
11,O=C(Nc1nc(-c2cccnc2)cs1)c1cccc(N2C(=O)CCC2=O)c1 [CBK287564],108.118
12,CCn1ncc2c1CCCC2NC1CCN(CC(F)(F)F)C1=O (centres unmarked) [CBK305206],121.904
13,O=C(O)CC(Cc1ccc(Br)cc1)C(=O)Nc1ccccc1 (centres unmarked) [CBK262714],103.557
14,O=C1NC2(CCc3ccccc31)CCN(C/C=C/c1cccnc1)C2 (centres unmarked) [CBK284622],167.12
15,O=S(=O)(CCSc1ccc(Cl)cc1)Oc1ccccc1 [CBK261021],94.044
16,Cc1nc(C2CCCN(C(=O)CCn3cccn3)C2)c2sccn12 (centres unmarked) [CBK285234],137.555
17,COC(=O)C(=O)N1CC[C@H]2NC(=O)N(c3ccc(C(C)C)cc3)C(=O)[C@H]21 [CBK289287],108.598
18,Cc1cc(C)cc(OCC(=O)Nc2ccc3[nH]c(=O)[nH]c3c2)c1 [CBK269676],104.11
19,CCSc1nnc(-c2cccnc2)n1Cc1ccccc1 [CBK076664],133.474
20,Cn1cc(C2CCCCCN2S(=O)(=O)c2ccc(F)cc2)cn1 (centres unmarked) [CBK284739],96.4851
21,COc1cc(CN(C)Cc2cccc3ccccc23)c([N+](=O)[O-])cc1OC [CBK261850],95.6249
22,Cc1nc(NS(=O)(=O)c2ccc(Oc3ccccc3)cc2)sc1C(=O)O [CBK045566],134.389
23,CC(C)NC(=O)/C(=C/c1c[nH]c2ncccc12)c1ccccc1 [CBK115357],127.606
24,CC(C)C(=O)N1CCC(c2nc3ccc(F)cc3cc2N)CC1 [CBK284656],156.022
25,COc1ncccc1CNC(=O)Cn1ccc(=O)[nH]c1=O [CBK305596],98.7931
26,Cc1ccc2c(c1)OC1(CCN(C(=O)c3cc4c(C)nn(C)c4s3)CC1)CC2=O [CBK166037],113.67
